Data taken from paper PMC8274477.
Results are given in words; binding and its absence hold for the method and conditions named. Some results given as binding are weak or reduced against the parent protein; the word gives no strength.

Assays:
Test in all cases: peptide or protein array; HuProt human proteome microarray; 5 ug/5 ml biotin-labelled LUBAC or OTULIN in solution, 1 h at room temperature; Cy5-streptavidin, scanned at 635 nm; BSA as negative control; hits: Z-score >= 3 and I_(Mean_Ratio) >= 1.4; both purified
OPHN1 (human) = target: T1, OPHN1 (human) (UniProt O60890)
T1 sequence: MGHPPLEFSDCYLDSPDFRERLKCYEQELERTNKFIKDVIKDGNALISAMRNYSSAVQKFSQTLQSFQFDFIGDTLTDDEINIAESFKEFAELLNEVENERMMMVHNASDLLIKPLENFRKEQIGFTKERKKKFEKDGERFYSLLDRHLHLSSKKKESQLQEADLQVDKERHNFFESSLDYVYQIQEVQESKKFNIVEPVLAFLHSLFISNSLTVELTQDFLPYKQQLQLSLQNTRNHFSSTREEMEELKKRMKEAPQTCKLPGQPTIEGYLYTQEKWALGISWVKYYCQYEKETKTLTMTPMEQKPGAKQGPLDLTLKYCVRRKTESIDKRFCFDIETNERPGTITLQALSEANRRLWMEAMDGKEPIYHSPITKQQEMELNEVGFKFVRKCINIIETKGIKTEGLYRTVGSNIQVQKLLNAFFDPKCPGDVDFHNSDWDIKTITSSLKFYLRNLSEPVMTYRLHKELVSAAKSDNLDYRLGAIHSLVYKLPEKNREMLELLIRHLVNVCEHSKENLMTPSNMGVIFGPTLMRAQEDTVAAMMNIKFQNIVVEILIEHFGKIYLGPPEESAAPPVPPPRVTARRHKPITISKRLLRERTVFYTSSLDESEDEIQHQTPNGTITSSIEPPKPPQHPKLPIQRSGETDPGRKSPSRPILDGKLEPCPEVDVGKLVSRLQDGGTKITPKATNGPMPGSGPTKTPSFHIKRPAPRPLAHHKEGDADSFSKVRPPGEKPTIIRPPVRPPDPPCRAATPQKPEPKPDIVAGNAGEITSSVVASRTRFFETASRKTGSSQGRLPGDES

TRMT12 (human) = target: T2, TRMT12 (human) (UniProt Q53H54)
T2 sequence: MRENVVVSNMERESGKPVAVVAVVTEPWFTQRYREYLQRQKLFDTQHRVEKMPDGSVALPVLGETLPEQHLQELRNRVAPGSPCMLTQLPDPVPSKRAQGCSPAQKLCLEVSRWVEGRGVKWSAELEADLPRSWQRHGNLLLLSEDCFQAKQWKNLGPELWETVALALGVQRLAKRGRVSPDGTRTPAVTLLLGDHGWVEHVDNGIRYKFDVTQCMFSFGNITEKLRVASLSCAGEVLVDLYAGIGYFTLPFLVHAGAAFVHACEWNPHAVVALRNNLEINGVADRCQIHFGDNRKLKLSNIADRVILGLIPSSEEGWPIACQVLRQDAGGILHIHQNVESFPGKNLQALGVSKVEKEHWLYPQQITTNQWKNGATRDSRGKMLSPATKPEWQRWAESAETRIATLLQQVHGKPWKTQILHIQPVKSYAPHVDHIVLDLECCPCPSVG

XRN2 (human) = target: T3, XRN2 (human) (UniProt Q9H0D6)
T3 sequence: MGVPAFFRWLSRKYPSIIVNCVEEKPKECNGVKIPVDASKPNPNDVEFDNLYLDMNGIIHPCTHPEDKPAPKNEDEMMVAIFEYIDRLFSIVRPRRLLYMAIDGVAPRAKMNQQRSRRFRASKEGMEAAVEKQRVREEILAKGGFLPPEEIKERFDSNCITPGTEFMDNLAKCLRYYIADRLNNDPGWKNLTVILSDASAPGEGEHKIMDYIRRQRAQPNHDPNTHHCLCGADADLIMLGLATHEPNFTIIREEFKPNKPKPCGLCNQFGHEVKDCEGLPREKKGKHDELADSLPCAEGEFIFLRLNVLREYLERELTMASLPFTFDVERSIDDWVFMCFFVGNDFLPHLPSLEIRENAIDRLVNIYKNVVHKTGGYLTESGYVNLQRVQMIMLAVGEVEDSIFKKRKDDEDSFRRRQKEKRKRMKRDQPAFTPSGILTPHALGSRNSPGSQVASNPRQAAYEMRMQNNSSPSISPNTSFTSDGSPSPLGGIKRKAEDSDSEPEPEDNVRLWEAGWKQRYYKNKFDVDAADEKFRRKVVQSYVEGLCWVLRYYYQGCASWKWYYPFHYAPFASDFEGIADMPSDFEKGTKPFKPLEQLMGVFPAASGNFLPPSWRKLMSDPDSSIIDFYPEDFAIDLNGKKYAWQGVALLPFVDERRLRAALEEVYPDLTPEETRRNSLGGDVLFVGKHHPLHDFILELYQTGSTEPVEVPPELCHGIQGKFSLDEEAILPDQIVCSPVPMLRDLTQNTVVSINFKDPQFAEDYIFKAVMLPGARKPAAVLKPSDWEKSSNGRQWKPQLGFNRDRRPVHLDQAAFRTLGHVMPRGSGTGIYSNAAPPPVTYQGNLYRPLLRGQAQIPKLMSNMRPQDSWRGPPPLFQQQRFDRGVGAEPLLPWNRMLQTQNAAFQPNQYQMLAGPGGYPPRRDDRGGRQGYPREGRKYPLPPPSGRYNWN

ZADH2 (human) = target: T4, ZADH2 (human) (UniProt Q8N4Q0)
T4 sequence: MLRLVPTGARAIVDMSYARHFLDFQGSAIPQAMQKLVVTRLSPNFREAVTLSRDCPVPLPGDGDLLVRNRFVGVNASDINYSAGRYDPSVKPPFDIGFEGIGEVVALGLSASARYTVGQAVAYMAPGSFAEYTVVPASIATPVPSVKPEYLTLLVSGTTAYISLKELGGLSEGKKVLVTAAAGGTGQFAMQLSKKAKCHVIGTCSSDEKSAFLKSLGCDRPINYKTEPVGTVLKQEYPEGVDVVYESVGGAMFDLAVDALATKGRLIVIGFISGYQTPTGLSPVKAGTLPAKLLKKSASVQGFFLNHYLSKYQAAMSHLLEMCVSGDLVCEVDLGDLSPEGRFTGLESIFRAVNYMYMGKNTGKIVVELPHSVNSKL

Measured: binding

linear ubiquitin chain assembly complex (LUBAC), purified as HIS-tagged HOIP with the subunit HOIL-1, biotin-labelled (from UniProt Q96EP0 1-1072; Q9BYM8 1-510)
binds: all assays above
